The target in the assay is T1, GST-Esc2-SLD2m (budding yeast) (UniProt Q06340).
T1 sequence: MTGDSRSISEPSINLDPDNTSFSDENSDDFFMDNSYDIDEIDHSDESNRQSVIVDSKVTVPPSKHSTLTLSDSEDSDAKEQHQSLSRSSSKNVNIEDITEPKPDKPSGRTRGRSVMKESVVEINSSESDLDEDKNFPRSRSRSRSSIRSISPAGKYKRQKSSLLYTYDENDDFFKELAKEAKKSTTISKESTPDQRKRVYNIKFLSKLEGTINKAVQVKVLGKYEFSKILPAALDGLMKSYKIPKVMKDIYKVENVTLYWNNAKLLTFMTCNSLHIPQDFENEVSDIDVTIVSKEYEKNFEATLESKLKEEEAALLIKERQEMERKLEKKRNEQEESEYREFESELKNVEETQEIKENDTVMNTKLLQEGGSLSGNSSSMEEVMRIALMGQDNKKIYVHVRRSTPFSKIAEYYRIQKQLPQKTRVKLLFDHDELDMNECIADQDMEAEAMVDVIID
In words: pull-down; GST or GST-tagged Esc2 or variants (2.2 μM) incubated with 3.6 μM Ubc9 in T buffer (25 mM Tris-Cl pH 7.4, 10% glycerol, 0.5 mM EDTA, 0.01% Igepal, 1 mM DTT) with 80 mM KCl, 30 min at 4 °C; captured on Glutathione Sepharose 4B; SDS-PAGE, Coomassie blue stain; both purified.

These are yes or no findings as the source states them, for the method shown. Where a sequence is shown, tags or fusion partners need not be part of it.

B1: Ubc9 (SUMO E2) (enzyme, budding yeast, UniProt P50623 1-157, looked up)
chain: MSSLCLQRLQEERKKWRKDHPFGFYAKPVKKADGSMDLQKWEAGIPGKEGTNWAGGVYPITVEYPNEYPSKPPKVKFPAGFYHPNVYPSGTICLSILNEDQDWRPAITLKQIVLGVQDLLDSPNPNSPAQEPAWRSFSRNKAEYDKKVLLQAKQYSK
notes: Ubc9, the SUMO E2 enzyme of budding yeast; source: E. coli, purified (previously published procedures)
In the case of B1, the binding entry is on record as “no binding (tested: 3.6 μM Ubc9 with 2.2 μM GST-Esc2-SLD2m)”.

(Values after paper PMC9243176, “Multifaceted regulation of the sumoylation of the Sgs1 DNA helicase” (The Journal of Biological Chemistry, 2022).)
